Experimental data as given in US20200171022A1, “FLT3 INHIBITORS FOR IMPROVING PAIN TREATMENTS BY OPIOIDS” (INSERM (Institut National de la Santé et da la Recherche …, priority 2017, published 2020).
At least one compound was matched to its structure with a doubt left.

Legend:
Male Sprague-Dawley rats [1] = experiment: Potentiation of morphine-induced analgesia and morphine-dose sparing, paw pressure test (Example 4); details: sunitinib 3 mg/kg i.p. before morphine 1 mg/kg s.c.
Male Sprague-Dawley rats [2] = experiment: Tolerance to morphine analgesia after chronic morphine treatment, paw pressure test (Example 5); format: in vivo; details: sunitinib 53 ng/rat or lestaurtinib 175 ng/rat intrathecal; morphine 2 mg/kg s.c. twice daily for 4 days

## CCN(CC)CCNC(=O)c1c(C)[nH]c(/C=C2\C(=O)Nc3ccc(F)cc32)c1C [sunitinib]
Male Sprague-Dawley rats [1]
  amount of analgesic effect (AUC) of morphine 1 mg/kg when combined with sunitinib: doubled
Male Sprague-Dawley rats [2]
  effect on decrease in morphine analgesia (tolerance, % MPE), inhibitor intrathecal: significantly reduced the decrease in morphine analgesia
